Measurements reported in PubChem BioAssay AID686937 (Drosophila RNAi Screening Center, 2013)
The screen tested about 23,000 reagents; below is a random part of those with a known target gene and a result. 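Reduced-secretion tags in replicate 1 do not always agree with the z-scores; no criterion for assigning the tags was given.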 Reagents against one gene are numbered here. Names joined by + are all predicted targets of the reagent. Not stated in the record: the amount of reagent.

- Test: 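Genes in the fly needed for secretion of protein constitutively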 (primary screen)
- Cell system: Drosophila S2 cells expressing secreted horseradish peroxidase
- Reagent: long dsRNA against Drosophila genes
- Timing: about 5.5 days (5 days dsRNA, then 12 h reporter induction)
- Challenge: reporter expression induced after 5 days of dsRNA, read 12 h later; inducer not stated
- Measured: 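After 5 days of dsRNA and 12 h of reporter induction, medium peroxidase read by chemiluminescence and scored as per-plate z-score; higher values mean more reporter released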
- Direction: z-score: higher = more reporter secreted into medium

gene | reagent no. | z-score, replicate 1 | z-score, replicate 2 | z-score, replicate 3 | z-score, replicate 4 | phenotype, replicate 1
arg (arginase) | 1 | 0.3 | 0.1 | – | – | –
Tollo | 1 | 0.35 | 0.16 | – | – | –
Indy-2 + CG33934 | 1 | 0.35 | 0.29 | – | – | –
Indy-2 + CG33934 | 2 | 0.28 | 0.52 | – | – | –
tok (tolkin) | 1 | 0.37 | 0.54 | – | – | –
TMEM216 (Transmembrane protein 216) | 1 | 0.24 | 0.33 | – | – | –
CG43271 | 1 | 0.34 | -0.28 | 0.23 | -0.17 | –
CG43271 | 2 | -0.43 | 0.32 | – | – | –
CG12723 | 1 | -0.97 | 0.36 | 0.69 | -0.31 | reduced secretion
CG1690 | 1 | 0.05 | 0.45 | – | – | –
CG5614 | 1 | 0.57 | 0.39 | 0.47 | 0.31 | –
Spn88Eb (Serpin 88Eb) | 1 | 0.44 | 0.34 | – | – | –
CG10958 | 1 | 0.58 | 0.39 | – | – | –
CG7685 | 1 | 0.29 | -0.03 | – | – | –
trk (trunk) | 1 | -0.37 | 0.17 | – | – | –
Btk (Bruton tyrosine kinase) | 1 | 0.61 | 0.24 | – | – | –
Btk (Bruton tyrosine kinase) | 2 | 0.1 | 0.14 | – | – | –
Btk (Bruton tyrosine kinase) | 3 | 0.28 | 0.14 | – | – | –
Prosalpha1R + Prosalpha1 | 1 | -4.37 | -3.56 | – | – | reduced secretion

In a second layout: entries from further up
gene,reagent no.,"z-score, replicate 1","z-score, replicate 2","z-score, replicate 3","z-score, replicate 4","phenotype, replicate 1"
Indy-2 + CG33934,2,0.28,0.52,,,
tok (tolkin),1,0.37,0.54,,,
TMEM216 (Transmembrane protein 216),1,0.24,0.33,,,
CG43271,1,0.34,-0.28,0.23,-0.17,
CG43271,2,-0.43,0.32,,,
CG12723,1,-0.97,0.36,0.69,-0.31,reduced secretion

Further results follow:
gene | reagent no. | z-score, replicate 1 | z-score, replicate 2 | z-score, replicate 3 | z-score, replicate 4 | phenotype, replicate 1
MCPH1 (Microcephalin) | 1 | 0.4 | 0.29 | – | – | –
MCPH1 (Microcephalin) | 2 | 0.39 | 0.46 | – | – | –
MCPH1 (Microcephalin) | 3 | 0.09 | -0.16 | – | – | –
CG15293 | 1 | -0.06 | 0.46 | – | – | –
CG8870 | 1 | 0.32 | 0.44 | – | – | –
brn (brainiac) | 1 | 0.38 | 0.52 | – | – | –
TwdlY (TweedleY) | 1 | -0.72 | -0.8 | 0.27 | 0.72 | –
CG5196 | 1 | 0.38 | 0.62 | – | – | –
CG13038 | 1 | 0.36 | 0.08 | – | – | –
CG4646 | 1 | -0.14 | -0.07 | – | – | –
Tim8 | 1 | 0.13 | 0.05 | – | – | –
asRNA:CR43430 + hts | 1 | 0.09 | 0.31 | – | – | –
Sym (Symplekin) | 1 | -2.27 | -1.47 | – | – | reduced secretion
CG13326 | 1 | 0.32 | 0.32 | – | – | –
usp (ultraspiracle) | 1 | 0.46 | 0.51 | – | – | –
CG33257 | 1 | 0.01 | 0.09 | – | – | –
jtb (jetboil) | 1 | 0.28 | 0.22 | – | – | –
CG13728 | 1 | 0.11 | 0.37 | – | – | –
mats (mob as tumor suppressor) | 1 | 0.14 | -0.96 | – | – | –
mats (mob as tumor suppressor) | 2 | 0.38 | 0.38 | – | – | –
mei-S332 (meiotic from via Salaria 332) | 1 | 0.13 | 0.29 | – | – | –
TFAM (mitochondrial transcription factor A) | 1 | 0.24 | 0.21 | – | – | –
grk (gurken) | 1 | 0.4 | 0.23 | – | – | –
DIP-beta (Dpr-interacting protein beta) | 1 | -0.26 | -0.7 | – | – | –
DIP-beta (Dpr-interacting protein beta) | 2 | 0.48 | -0.13 | – | – | –
DIP-beta (Dpr-interacting protein beta) | 3 | 0.42 | 0.26 | – | – | –
DIP-beta (Dpr-interacting protein beta) | 4 | 0.59 | 0.04 | – | – | –
D19B | 1 | -0.28 | -0.49 | – | – | –
CG31109 | 1 | 0.36 | 0.18 | – | – | –
CG12520 | 1 | 0.19 | 0.33 | – | – | –
CG7065 | 1 | 0.59 | 0.56 | – | – | –
CG16890 | 1 | 0.44 | 0.23 | – | – | –
nudC | 1 | 0.5 | 0.46 | – | – | –
nudC | 2 | 0.22 | 0.23 | – | – | –
CG8841 | 1 | 0.42 | 0.37 | – | – | –
CG11951 | 1 | 0.29 | 0.33 | – | – | –
CG1946 | 1 | 0.2 | 0.25 | – | – | –
